The supplement of paper PMC6078165
± gives the standard deviation of the averaged measurements. Values are relative to the signal before dosing, not to a vehicle control; the signal also falls without drug.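 Fibroblast labels name human fibroblasts: mostly primary ones from tissues such as uterus (C12385, HUF), lung (H6013), bone (Hs27A), adrenal (HADF) and skin (WS1), plus mammary HMF and breast cancer-associated Hs343T. The cancer cells are basal-like or mesenchymal-like triple-negative breast cancer lines. The paper calls a changed response a hit when it shifts by more than 3x the replicate standard deviation. The tissue of the other fibroblasts is not given here.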

Test system: Hs578T
Experiment: relative JC-1 red fluorescence (viability) vs pre-drug, coculture with fibroblast (fraction); higher = more viable cancer cells
Procedure: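 JC-1 labelled TNBC cells cocultured 1:1 (1,500 cells each) with CellTrace Violet stained primary or stromal fibroblasts in 384-well plates in FluoroBrite medium, treated with one of 42 anticancer drugs at 0.1, 1, 10 or 100 uM. JC-1 red fluorescence (mitochondrial integrity in cancer cells only) was read by plate reader every 8 h for 72 h. Values are normalised to each well's pre-drug value. The stock of one drug was tenfold lower, so its dose labels may be too high.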

COc1cc([C@@H]2c3cc4c(cc3[C@@H](O[C@@H]3O[C@@H]5CO[C@@H](C)O[C@H]5[C@H](O)[C@H]3O)[C@H]3COC(=O)[C@H]23)OCO4)cc(OC)c1O [Etoposide]
relative JC-1 red fluorescence
Details | 8 h | 16 h | 24 h | 32 h | 40 h | 48 h | 56 h | 64 h | 72 h
10 µM | 0.869 ± 0.0099 | 0.7882 ± 0.0022 | 0.744 ± 0.0097 | 0.703 ± 0.025 | 0.639 ± 0.022 | 0.602 ± 0.032 | 0.585 ± 0.026 | 0.559 ± 0.038 | 0.564 ± 0.045
100 µM | 0.896 ± 0.014 | 0.838 ± 0.02 | 0.815 ± 0.019 | 0.765 ± 0.028 | 0.687 ± 0.025 | 0.636 ± 0.033 | 0.62 ± 0.041 | 0.587 ± 0.037 | 0.573 ± 0.039

relative JC-1 red fluorescence
Details | 8 h | 16 h | 24 h | 32 h | 40 h | 48 h | 56 h | 64 h | 72 h
10 µM, coculture fibroblast: C12385 | 0.824 ± 0.038 | 0.695 ± 0.014 | 0.645 ± 0.053 | 0.557 ± 0.06 | 0.501 ± 0.069 | 0.465 ± 0.074 | 0.432 ± 0.068 | 0.422 ± 0.079 | 0.415 ± 0.078
10 µM, coculture fibroblast: H6013 | 0.838 ± 0.009 | 0.785 ± 0.032 | 0.735 ± 0.065 | 0.699 ± 0.091 | 0.658 ± 0.097 | 0.635 ± 0.1 | 0.615 ± 0.11 | 0.604 ± 0.098 | 0.572 ± 0.091
10 µM, coculture fibroblast: H6019 | 0.801 ± 0.005 | 0.721 ± 0.024 | 0.67 ± 0.0087 | 0.572 ± 0.022 | 0.525 ± 0.0042 | 0.495 ± 0.012 | 0.463 ± 0.016 | 0.444 ± 0.022 | 0.43 ± 0.028
10 µM, coculture fibroblast: H6076 | 0.9267 ± 0.0069 | 0.8546 ± 0.0029 | 0.7956 ± 0.00088 | 0.74611 ± 0.00048 | 0.68345 ± 0.00045 | 0.6635 ± 0.0019 | 0.624 ± 0.011 | 0.601 ± 0.014 | 0.583 ± 0.029
10 µM, coculture fibroblast: H6231 | 0.8988 ± 0.0017 | 0.812 ± 0.029 | 0.736 ± 0.013 | 0.6877 ± 0.0045 | 0.6143 ± 0.005 | 0.585 ± 0.0067 | 0.5365 ± 0.0029 | 0.52 ± 0.0057 | 0.502 ± 0.0046
10 µM, coculture fibroblast: HADF | 0.888 ± 0.051 | 0.846 ± 0.03 | 0.783 ± 0.019 | 0.738 ± 0.022 | 0.7029 ± 0.0061 | 0.684 ± 0.02 | 0.655 ± 0.041 | 0.64 ± 0.064 | 0.614 ± 0.07
10 µM, coculture fibroblast: HCFa | 0.835 ± 0.018 | 0.755 ± 0.008 | 0.6779 ± 0.0019 | 0.6166 ± 0.0029 | 0.558 ± 0.015 | 0.535 ± 0.012 | 0.503 ± 0.024 | 0.496 ± 0.026 | 0.464 ± 0.027
10 µM, coculture fibroblast: HCPF | 0.892 ± 0.018 | 0.7995 ± 0.0071 | 0.74726 ± 0.00011 | 0.712 ± 0.0084 | 0.645 ± 0.014 | 0.62 ± 0.025 | 0.59 ± 0.027 | 0.552 ± 0.032 | 0.524 ± 0.038
10 µM, coculture fibroblast: HHSteC | 0.854 ± 0.026 | 0.788 ± 0.026 | 0.719 ± 0.016 | 0.6592 ± 0.0039 | 0.61 ± 0.012 | 0.582 ± 0.024 | 0.552 ± 0.021 | 0.533 ± 0.017 | 0.51 ± 0.024
10 µM, coculture fibroblast: HMF | 0.917 ± 0.041 | 0.834 ± 0.039 | 0.772 ± 0.023 | 0.7243 ± 0.0064 | 0.663 ± 0.0073 | 0.6384 ± 0.0022 | 0.596 ± 0.021 | 0.573 ± 0.039 | 0.549 ± 0.057
10 µM, coculture fibroblast: HPFa | 0.9165 ± 0.0062 | 0.869 ± 0.041 | 0.835 ± 0.043 | 0.801 ± 0.056 | 0.777 ± 0.071 | 0.763 ± 0.077 | 0.729 ± 0.092 | 0.72 ± 0.099 | 0.69 ± 0.1
10 µM, coculture fibroblast: HUF | 0.832 ± 0.045 | 0.706 ± 0.033 | 0.664 ± 0.023 | 0.557 ± 0.031 | 0.492 ± 0.013 | 0.4592 ± 0.0022 | 0.43 ± 0.0094 | 0.417 ± 0.021 | 0.409 ± 0.025
10 µM, coculture fibroblast: Hs27A | 0.878 ± 0.032 | 0.8277 ± 0.0011 | 0.785 ± 0.027 | 0.751 ± 0.034 | 0.708 ± 0.066 | 0.703 ± 0.092 | 0.67 ± 0.1 | 0.663 ± 0.13 | 0.619 ± 0.14
10 µM, coculture fibroblast: Hs343T | 0.931 ± 0.096 | 0.83 ± 0.074 | 0.763 ± 0.035 | 0.728 ± 0.019 | 0.644 ± 0.0072 | 0.613 ± 0.028 | 0.559 ± 0.041 | 0.522 ± 0.06 | 0.505 ± 0.07
10 µM, coculture fibroblast: WS1 | 0.82961 ± 0.00064 | 0.745 ± 0.015 | 0.704 ± 0.018 | 0.615 ± 0.026 | 0.55 ± 0.025 | 0.528 ± 0.019 | 0.501 ± 0.016 | 0.492 ± 0.006 | 0.48321 ± 0.00032
100 µM, coculture fibroblast: C12385 | 0.812 ± 0.028 | 0.766 ± 0.011 | 0.732 ± 0.024 | 0.665 ± 0.017 | 0.59387 ± 0.00021 | 0.549 ± 0.0073 | 0.5212 ± 0.0025 | 0.5018 ± 0.0019 | 0.492 ± 0.005
100 µM, coculture fibroblast: H6013 | 0.899 ± 0.018 | 0.903 ± 0.027 | 0.875 ± 0.04 | 0.865 ± 0.014 | 0.812 ± 0.018 | 0.7764 ± 0.0062 | 0.71 ± 0.042 | 0.686 ± 0.05 | 0.643 ± 0.055
100 µM, coculture fibroblast: H6019 | 0.781 ± 0.015 | 0.739 ± 0.031 | 0.754 ± 0.045 | 0.693 ± 0.028 | 0.669 ± 0.032 | 0.657 ± 0.028 | 0.651 ± 0.028 | 0.663 ± 0.029 | 0.659 ± 0.03
100 µM, coculture fibroblast: H6076 | 0.911 ± 0.023 | 0.856 ± 0.026 | 0.841 ± 0.018 | 0.8187 ± 0.0039 | 0.751 ± 0.018 | 0.714 ± 0.031 | 0.658 ± 0.047 | 0.626 ± 0.05 | 0.626 ± 0.054
100 µM, coculture fibroblast: H6231 | 0.8812 ± 0.0037 | 0.815 ± 0.024 | 0.7898 ± 0.0015 | 0.7462 ± 0.005 | 0.67 ± 0.0076 | 0.63444 ± 0.00038 | 0.584 ± 0.015 | 0.564 ± 0.033 | 0.551 ± 0.041
100 µM, coculture fibroblast: HADF | 0.949 ± 0.072 | 0.872 ± 0.052 | 0.927 ± 0.067 | 0.908 ± 0.077 | 0.864 ± 0.079 | 0.836 ± 0.082 | 0.789 ± 0.07 | 0.767 ± 0.049 | 0.742 ± 0.025
100 µM, coculture fibroblast: HCFa | 0.8761 ± 0.0034 | 0.8656 ± 0.0083 | 0.833 ± 0.034 | 0.774 ± 0.034 | 0.717 ± 0.052 | 0.716 ± 0.041 | 0.696 ± 0.033 | 0.69 ± 0.055 | 0.651 ± 0.065
100 µM, coculture fibroblast: HCPF | 0.9087 ± 0.0075 | 0.867 ± 0.0022 | 0.857 ± 0.021 | 0.821 ± 0.035 | 0.748 ± 0.045 | 0.716 ± 0.033 | 0.694 ± 0.057 | 0.646 ± 0.055 | 0.644 ± 0.048
100 µM, coculture fibroblast: HHSteC | 0.898 ± 0.02 | 0.883 ± 0.02 | 0.8568 ± 0.0063 | 0.818 ± 0.022 | 0.753 ± 0.042 | 0.72 ± 0.052 | 0.692 ± 0.064 | 0.67 ± 0.071 | 0.638 ± 0.068
100 µM, coculture fibroblast: HMF | 0.8902 ± 0.0019 | 0.822 ± 0.021 | 0.789 ± 0.033 | 0.769 ± 0.027 | 0.7 ± 0.051 | 0.657 ± 0.042 | 0.62 ± 0.059 | 0.589 ± 0.053 | 0.572 ± 0.048
100 µM, coculture fibroblast: HPFa | 0.92 ± 0.013 | 0.8901 ± 0.007 | 0.855 ± 0.012 | 0.7973 ± 0.0025 | 0.744 ± 0.025 | 0.698 ± 0.026 | 0.659 ± 0.029 | 0.644 ± 0.048 | 0.609 ± 0.056
100 µM, coculture fibroblast: HUF | 0.825 ± 0.018 | 0.73 ± 0.025 | 0.741 ± 0.013 | 0.668 ± 0.022 | 0.626 ± 0.021 | 0.591 ± 0.024 | 0.558 ± 0.015 | 0.556 ± 0.0076 | 0.553 ± 0.019
100 µM, coculture fibroblast: Hs27A | 0.92 ± 0.0093 | 0.911 ± 0.019 | 0.901 ± 0.011 | 0.865 ± 0.021 | 0.79 ± 0.05 | 0.777 ± 0.057 | 0.739 ± 0.076 | 0.733 ± 0.094 | 0.695 ± 0.1
100 µM, coculture fibroblast: Hs343T | 0.959 ± 0.015 | 0.872 ± 0.015 | 0.8422 ± 0.0043 | 0.812 ± 0.016 | 0.706 ± 0.016 | 0.657 ± 0.027 | 0.618 ± 0.02 | 0.579 ± 0.025 | 0.573 ± 0.026
100 µM, coculture fibroblast: WS1 | 0.793 ± 0.015 | 0.732 ± 0.044 | 0.697 ± 0.073 | 0.618 ± 0.071 | 0.556 ± 0.09 | 0.539 ± 0.11 | 0.521 ± 0.11 | 0.516 ± 0.12 | 0.515 ± 0.13
